Sequences of proteins named here, by UniProt entry; tags and fusion partners are left off. Residues count along the entry.
UniProt P38646, residues 47-679: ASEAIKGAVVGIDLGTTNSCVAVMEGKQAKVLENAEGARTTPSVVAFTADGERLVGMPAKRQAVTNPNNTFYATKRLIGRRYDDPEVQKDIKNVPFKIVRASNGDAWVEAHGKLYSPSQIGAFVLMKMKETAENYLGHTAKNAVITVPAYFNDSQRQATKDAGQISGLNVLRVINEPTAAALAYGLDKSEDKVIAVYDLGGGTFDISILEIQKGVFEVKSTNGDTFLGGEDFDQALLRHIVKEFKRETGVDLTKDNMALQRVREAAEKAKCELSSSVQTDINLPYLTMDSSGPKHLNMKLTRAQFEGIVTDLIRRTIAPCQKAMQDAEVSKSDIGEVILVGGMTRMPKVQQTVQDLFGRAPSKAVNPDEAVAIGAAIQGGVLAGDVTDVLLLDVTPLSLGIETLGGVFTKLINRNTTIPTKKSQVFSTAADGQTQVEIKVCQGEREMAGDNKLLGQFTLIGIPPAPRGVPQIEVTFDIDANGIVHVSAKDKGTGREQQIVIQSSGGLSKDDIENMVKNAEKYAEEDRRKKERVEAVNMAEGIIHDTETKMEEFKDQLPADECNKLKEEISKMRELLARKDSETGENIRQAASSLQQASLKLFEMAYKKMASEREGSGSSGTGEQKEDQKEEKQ
UniProt P08238: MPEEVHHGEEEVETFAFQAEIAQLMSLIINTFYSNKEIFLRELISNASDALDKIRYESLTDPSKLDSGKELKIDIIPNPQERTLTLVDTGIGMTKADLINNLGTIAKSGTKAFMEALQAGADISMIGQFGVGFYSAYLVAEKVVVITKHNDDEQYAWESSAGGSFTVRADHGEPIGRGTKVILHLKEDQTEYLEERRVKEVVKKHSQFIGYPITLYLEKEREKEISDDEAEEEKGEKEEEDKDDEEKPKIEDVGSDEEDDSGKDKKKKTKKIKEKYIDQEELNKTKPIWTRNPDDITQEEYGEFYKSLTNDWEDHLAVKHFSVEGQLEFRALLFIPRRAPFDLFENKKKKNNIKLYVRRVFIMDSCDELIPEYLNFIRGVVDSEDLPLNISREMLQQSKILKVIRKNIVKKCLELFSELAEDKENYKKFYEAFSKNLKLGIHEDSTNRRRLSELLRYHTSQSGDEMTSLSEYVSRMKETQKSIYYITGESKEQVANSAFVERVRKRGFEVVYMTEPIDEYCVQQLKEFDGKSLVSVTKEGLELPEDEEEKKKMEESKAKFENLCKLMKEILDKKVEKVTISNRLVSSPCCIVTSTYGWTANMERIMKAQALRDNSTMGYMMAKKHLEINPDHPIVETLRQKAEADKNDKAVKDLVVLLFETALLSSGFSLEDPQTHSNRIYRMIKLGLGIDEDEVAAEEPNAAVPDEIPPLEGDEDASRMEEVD
UniProt P11021, residues 19-654: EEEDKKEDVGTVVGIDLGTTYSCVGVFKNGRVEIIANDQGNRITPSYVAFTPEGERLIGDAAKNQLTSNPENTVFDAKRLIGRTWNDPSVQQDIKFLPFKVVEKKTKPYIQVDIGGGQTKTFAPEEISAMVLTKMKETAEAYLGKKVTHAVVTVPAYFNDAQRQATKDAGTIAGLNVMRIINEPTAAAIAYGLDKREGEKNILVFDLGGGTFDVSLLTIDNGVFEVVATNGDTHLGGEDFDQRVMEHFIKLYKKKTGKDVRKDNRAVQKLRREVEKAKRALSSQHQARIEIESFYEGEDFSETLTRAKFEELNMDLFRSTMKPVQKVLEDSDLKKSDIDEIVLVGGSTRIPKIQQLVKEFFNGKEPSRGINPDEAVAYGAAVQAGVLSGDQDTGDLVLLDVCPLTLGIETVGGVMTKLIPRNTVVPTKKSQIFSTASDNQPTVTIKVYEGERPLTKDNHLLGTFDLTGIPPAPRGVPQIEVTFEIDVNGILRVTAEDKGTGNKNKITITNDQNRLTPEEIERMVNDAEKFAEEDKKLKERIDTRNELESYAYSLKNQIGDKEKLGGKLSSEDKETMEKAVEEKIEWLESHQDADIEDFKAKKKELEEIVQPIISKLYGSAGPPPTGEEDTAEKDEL
UniProt Q00987: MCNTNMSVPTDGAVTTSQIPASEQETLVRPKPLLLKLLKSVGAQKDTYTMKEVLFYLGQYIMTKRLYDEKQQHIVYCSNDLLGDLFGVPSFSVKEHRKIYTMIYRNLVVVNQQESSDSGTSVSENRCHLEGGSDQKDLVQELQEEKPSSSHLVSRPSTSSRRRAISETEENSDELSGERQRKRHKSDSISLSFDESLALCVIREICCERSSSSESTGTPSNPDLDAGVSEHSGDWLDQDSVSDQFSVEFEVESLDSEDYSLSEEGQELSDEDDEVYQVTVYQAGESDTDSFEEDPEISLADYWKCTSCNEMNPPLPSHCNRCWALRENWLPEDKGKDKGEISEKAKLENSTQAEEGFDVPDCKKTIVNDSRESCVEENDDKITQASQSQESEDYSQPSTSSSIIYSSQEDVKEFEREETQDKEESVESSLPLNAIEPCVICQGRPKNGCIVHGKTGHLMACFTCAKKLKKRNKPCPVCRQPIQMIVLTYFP
UniProt P11142: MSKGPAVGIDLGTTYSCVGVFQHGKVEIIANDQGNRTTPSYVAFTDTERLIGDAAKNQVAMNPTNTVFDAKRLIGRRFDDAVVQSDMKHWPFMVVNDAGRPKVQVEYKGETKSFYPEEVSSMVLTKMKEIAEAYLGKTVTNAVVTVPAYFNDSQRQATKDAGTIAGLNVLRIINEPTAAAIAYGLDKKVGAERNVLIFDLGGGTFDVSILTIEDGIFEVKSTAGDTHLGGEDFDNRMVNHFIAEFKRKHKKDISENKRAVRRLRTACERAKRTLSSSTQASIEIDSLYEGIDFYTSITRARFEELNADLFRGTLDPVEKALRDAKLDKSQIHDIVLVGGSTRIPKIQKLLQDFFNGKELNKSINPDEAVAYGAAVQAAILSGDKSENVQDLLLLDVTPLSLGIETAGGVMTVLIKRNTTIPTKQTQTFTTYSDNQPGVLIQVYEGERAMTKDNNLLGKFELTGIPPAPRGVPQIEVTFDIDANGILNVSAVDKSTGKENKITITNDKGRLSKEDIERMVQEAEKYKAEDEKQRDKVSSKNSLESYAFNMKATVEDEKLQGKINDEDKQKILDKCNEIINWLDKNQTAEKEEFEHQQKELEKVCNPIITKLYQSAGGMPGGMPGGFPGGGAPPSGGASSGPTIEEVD
UniProt P13010: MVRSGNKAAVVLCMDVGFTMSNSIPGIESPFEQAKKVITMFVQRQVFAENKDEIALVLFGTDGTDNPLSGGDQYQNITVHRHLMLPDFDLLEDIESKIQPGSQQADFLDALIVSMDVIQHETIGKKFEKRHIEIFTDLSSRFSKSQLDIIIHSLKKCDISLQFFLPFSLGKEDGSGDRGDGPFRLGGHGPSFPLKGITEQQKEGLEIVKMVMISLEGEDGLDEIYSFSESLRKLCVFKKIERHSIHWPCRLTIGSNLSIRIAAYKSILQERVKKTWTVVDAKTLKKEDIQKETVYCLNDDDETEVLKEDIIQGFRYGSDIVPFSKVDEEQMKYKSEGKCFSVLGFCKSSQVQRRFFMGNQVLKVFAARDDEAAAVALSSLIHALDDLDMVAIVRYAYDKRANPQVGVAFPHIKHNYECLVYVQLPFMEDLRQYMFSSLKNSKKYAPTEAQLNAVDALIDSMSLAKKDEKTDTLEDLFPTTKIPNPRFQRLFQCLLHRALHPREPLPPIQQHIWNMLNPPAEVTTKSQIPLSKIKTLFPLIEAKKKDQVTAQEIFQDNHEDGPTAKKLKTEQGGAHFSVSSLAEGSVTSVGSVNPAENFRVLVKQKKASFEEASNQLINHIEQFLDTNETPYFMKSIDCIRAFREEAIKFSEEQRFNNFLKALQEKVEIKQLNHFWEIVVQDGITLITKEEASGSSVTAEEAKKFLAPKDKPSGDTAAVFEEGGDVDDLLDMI

In article doi:10.1101/2021.06.28.450115:

Molecular target: T1, DAB2IP (endogenous, SW48) (human (endogenous in SW48)) (UniProt Q5VWQ8)
T1 sequence: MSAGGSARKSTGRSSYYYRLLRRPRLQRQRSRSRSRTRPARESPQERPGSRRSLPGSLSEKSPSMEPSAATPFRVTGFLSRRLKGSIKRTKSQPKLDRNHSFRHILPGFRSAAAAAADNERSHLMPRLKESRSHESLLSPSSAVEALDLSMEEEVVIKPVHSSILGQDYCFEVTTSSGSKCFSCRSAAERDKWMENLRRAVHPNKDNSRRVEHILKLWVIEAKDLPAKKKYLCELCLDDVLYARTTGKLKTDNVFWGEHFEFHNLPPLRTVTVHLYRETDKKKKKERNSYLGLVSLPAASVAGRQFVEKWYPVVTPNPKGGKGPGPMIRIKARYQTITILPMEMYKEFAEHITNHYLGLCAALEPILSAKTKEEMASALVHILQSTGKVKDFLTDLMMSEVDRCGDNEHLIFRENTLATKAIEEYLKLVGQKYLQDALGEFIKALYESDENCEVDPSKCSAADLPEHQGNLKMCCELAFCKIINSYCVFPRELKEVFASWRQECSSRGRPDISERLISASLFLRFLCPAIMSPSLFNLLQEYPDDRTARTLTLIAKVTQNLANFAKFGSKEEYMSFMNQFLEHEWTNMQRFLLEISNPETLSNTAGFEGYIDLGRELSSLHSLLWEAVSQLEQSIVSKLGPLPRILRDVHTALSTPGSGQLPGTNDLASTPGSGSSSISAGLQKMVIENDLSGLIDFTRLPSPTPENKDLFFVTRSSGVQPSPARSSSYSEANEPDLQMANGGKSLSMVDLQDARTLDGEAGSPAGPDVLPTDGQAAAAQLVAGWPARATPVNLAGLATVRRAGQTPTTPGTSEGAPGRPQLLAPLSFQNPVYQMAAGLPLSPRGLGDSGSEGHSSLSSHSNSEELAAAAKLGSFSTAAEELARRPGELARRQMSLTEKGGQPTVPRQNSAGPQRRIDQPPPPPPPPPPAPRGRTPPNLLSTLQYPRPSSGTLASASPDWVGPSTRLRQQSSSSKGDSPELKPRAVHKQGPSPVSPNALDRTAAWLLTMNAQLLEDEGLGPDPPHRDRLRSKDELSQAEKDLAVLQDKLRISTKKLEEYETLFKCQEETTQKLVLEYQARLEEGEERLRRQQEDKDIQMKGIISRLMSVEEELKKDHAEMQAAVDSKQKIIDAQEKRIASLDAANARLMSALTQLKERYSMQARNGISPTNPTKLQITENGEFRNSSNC
Assay: affinity purification with mass spectrometry

binding | Substance
binds | GRP75 (endogenous, SW48) (from UniProt P38646 47-679)
binds | HSP90AB1 (endogenous, SW48) (from UniProt P08238 1-724)
binds | HSPA5 (endogenous, SW48) (from UniProt P11021 19-654)
no binding | MDM2 (endogenous, SW48) (from UniProt Q00987 1-491)
binds | HSPA8 (endogenous, SW48) (from UniProt P11142 1-646)
binds | XRCC5 (endogenous, SW48) (from UniProt P13010 1-732)

Molecular target: p53 (endogenous, wild type, SW48) (human (endogenous in SW48)) (UniProt P04637)
Assay: affinity purification with mass spectrometry

binding | Substance
binds | XRCC5 (endogenous, SW48) (from UniProt P13010 1-732)

These are yes or no findings as the source states them, for the method shown. Binding seen in cells or lysates may run through a third protein. These calls come from enrichment with a bait or labelling near it, and not all partners need be listed. For some of these results: No binding means not detected with the bait.
